Data as given in patent US5783662A, “Polyphosphoinsitide binding peptides for intracellular drug delivery” (Brigham & Women's Hospital, Inc., priority 1997, dated 1998).
Entries after “also recorded” stand apart in the source; their conditions may differ. Read-outs that look alike come from different tables or passages of the source. At least one peptide structure holds a part that was inferred or is arguable (an end, a ring closure or a residue). Where a SMILES comes first, the peptide text is derived from it. Where no end group is shown, it is not given here. The star is where a group is joined. RhodamineB = CCN(CC)c1ccc2c(-c3ccccc3C(=O)*)c3ccc(=[N+](CC)CC)cc-3oc2c1

Assays:
[1] = system: neutrophil cell membranes; assay: Penetration of neutrophil cell membranes; type: cell-based
human blood monocytes = assay: Uptake of conjugate into monocytes; type: cell-based
[2] = Fluorescence change of rhodamine-peptide conjugates on addition of PIP2; type: binding; details: 2 μM conjugate, 10 mM Tris pH 7.0, increasing PIP2
[3] = system: polymorphonuclear leukocytes; assay: Uptake of conjugate into polymorphonuclear leukocytes; type: cell-based
human blood platelets = assay: Uptake of conjugate into intact platelets; type: cell-based
dictyestelium discoidium = assay: Uptake of conjugate into Dictyostelium; type: cell-based
[4] = system: intact human blood platelets; details: 10 uM in extracellular culture medium
[5] = system: chinese hamster fibroblasts; assay: Uptake of conjugate into chinese hamster fibroblasts; type: cell-based
human melanoma cells [6] = assay: Uptake of conjugate from extracellular medium, fluorescence microscopy; type: cell-based
human melanoma cells [7] = system: human melanoma cells
cells = assay: Staining, transport and activity in cells regardless of cell type; type: cell-based
NIH-3T3 fibroblasts = assay: Uptake of conjugate into fibroblasts; type: cell-based, mouse
[8] = concentrations significantly less than 5 uM

CCN(CC)c1ccc2c(-c3ccccc3C(=O)N[C@@H](CCC(N)=O)C(=O)N[C@@H](CCCNC(=N)N)C(=O)N[C@@H](CC(C)C)C(=O)O)c3ccc(=[N+](CC)CC)cc-3oc2c1 [rhodamine-GS160-162]
penetration of cell membranes [1]: cannot penetrate
cellular uptake / entry (human blood monocytes): weakly entered
intracellular activity (human blood monocytes): some intracellular activity
effect of PIP2 on fluorescence intensity of the conjugate [2]: affected to a lesser extent

CCN(CC)c1ccc2c(-c3ccccc3C(=O)N[C@@H](CCC(N)=O)C(=O)N[C@@H](CCCNC(=N)N)C(=O)O)c3ccc(=[N+](CC)CC)cc-3oc2c1 [rhodamine-QR]
penetration of cell membranes [1]: cannot penetrate

CCN(CC)c1ccc2c(-c3ccccc3C(=O)N[C@@H](CCC(N)=O)C(=O)N[C@@H](CCCNC(=N)N)C(=O)N[C@@H](CC(C)C)C(=O)N[C@@H](Cc3ccccc3)C(=O)N[C@@H](CCC(N)=O)C(=O)N[C@H](C(=O)N[C@@H](CCCCN)C(=O)NCC(=O)N[C@@H](CCCNC(=N)N)C(=O)N[C@@H](CCCNC(=N)N)C(=O)O)C(C)C)c3ccc(=[N+](CC)CC)cc-3oc2c1 [rhodamine-Sequence I.D. No. 2 conjugate] (RhodamineB-QRLFQVKGRR-OH)
cellular uptake [3]: rapidly and efficiently internalized
cellular uptake / entry (human blood platelets): rapidly and efficiently internalized; also recorded: rapidly and efficiently taken up
cellular uptake (dictyestelium discoidium): rapidly and efficiently internalized
blocking of thrombin and glass-induced platelet activation [4]: rapid, efficient and complete blocking
cellular uptake [5]: rapidly and efficiently internalized
cellular uptake / entry (human blood monocytes): rapidly and efficiently internalized
staining of cells (human melanoma cells [6]; [8]): punctate staining
cellular uptake / entry (human melanoma cells [6]; conjugate in extracellular medium): rapid and efficient cellular uptake; also recorded: rapidly and efficiently taken up
effect of PIP2 on fluorescence intensity of the conjugate [2]: large increase
change in cell morphology (human melanoma cells [7]; 2 μM in culture medium, exposure for 4 seconds): flattened and stopped surface protrusion
surface protrusion activity (human melanoma cells [7]; [8]): without altering the surface protrusion activity
time to staining of intracellular components (cells; <about 10 uM in the culture medium, regardless of cell type): on the order of seconds
entry into fixed cells (cells; aldehyde fixed cells): entered into aldehyde fixed cells
membrane transport-mediating properties after PIP2 micelles (cells; carrier first contacted with micelles of phosphatidylinositol-4,5-bisphosphate): blocked
membrane transport-mediating properties in serum (cells; in the presence of serum (which contains lipids)): manifest in the presence of serum
cellular uptake / entry (NIH-3T3 fibroblasts): rapidly and efficiently taken up

QRLFQVKGRR [Seq. I.D. No. 2, QRLFQVKGRR]
change in cell morphology (human melanoma cells [7]; microinjected with 2 μM, positive control): exhibited the same morphological changes
